# Reference: PubChem BioAssay AID1259308 (NCATS, 2017)
# Aim: 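Candidate targets for better recombinant protein yield in mammalian cells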 (primary screen)
# Cells: human HEK293 embryonic kidney cells stably expressing firefly luciferase (HEK-CMV-Luc2-Hygro)
# Reagent: single siRNA against human genes, 0.8 pmol siRNA per well
# Time to read-out: 72 h
# Measurement: 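Reporter luminescence and viable-cell signal on separate replicate plates, given as percent of non-targeting control and median/MAD z-scores, plus per-cell luciferase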
# Scale: total luciferase, z-score and total luciferase, % of control: higher = more reporter protein produced; luciferase per cell, z-score: higher = more reporter output per viable cell; viable cells, % of control: higher = more viable cells
# Active means: 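Active when the median/MAD z-score for overall luciferase is greater than 3; a gene was taken forward for validation with new siRNAs if at least two of its three siRNAs passed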
# Meaning of the calls: active = raised luciferase; inactive = no rise
# In all, the deposit lists about 59,000 reagents; shown is a random part of them. About 1,510 of them (2.6%) were called active. 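Calls use total luciferase alone and ignore viability, so some active siRNAs may act by altering cell number.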 A number with no mark means an inactive call. Reagents against one gene are numbered here. Reagent sequences are not shown.
gene symbol,reagent no.,"total luciferase, z-score","total luciferase, % of control","luciferase per cell, z-score","viable cells, % of control"
SETX,1,0.265,87.2,-0.0509,98.7
SETX,2,0.169,85.3,0.38,86.2
SETX,3,0.888,99.5,0.345,102
BTG4,1,-0.636,69.2,-1.28,108
BTG4,2,-1.16,58.8,0.0178,65.5
BTG4,3,-0.132,79.3,-0.183,92.9
CLEC11A,1,-0.472,72.5,-0.678,96.8
CLEC11A,2,-0.246,77,-0.767,105
CLEC11A,3,-1.27,56.7,-2.06,109
CFL2,1,-0.845,65.1,-0.308,78.9
CFL2,2,0.218,86.2,0.0306,95.6
CFL2,3,0.0624,83.1,-0.288,100

A run of entries taken from the entries so far, as a working copy:
gene symbol,reagent no.,"total luciferase, z-score","total luciferase, % of control","luciferase per cell, z-score","viable cells, % of control"
CLEC11A,2,-0.246,77,-0.767,105
CLEC11A,3,-1.27,56.7,-2.06,109
CFL2,1,-0.845,65.1,-0.308,78.9

More reagents follow.
gene symbol,reagent no.,"total luciferase, z-score","total luciferase, % of control","luciferase per cell, z-score","viable cells, % of control"
RHOT1,1,1.26,107,0.282,111
RHOT1,2,-0.646,69,-1.29,108
RHOT1,3,-1.13,59.5,-1.49,98.4
DNM2,1,0.151,84.9,-0.296,103
DNM2,2,-1.87,44.6,-0.969,64.3
DNM2,3,0.218,86.2,0.206,91.3
OR13A1,1,-0.724,67.5,-0.664,89.8
OR13A1,2,-0.644,69.1,-0.278,83
OR13A1,3,-0.842,65.1,-0.184,76.4
SPTBN2,1,-1.38,54.3,-1.53,91
SPTBN2,2,0.466,91.2,0.272,94.8
SPTBN2,3,0.566,93.1,0.742,85.6
